Experimental data from US20100278837A1, “Compositions And Methods For Reducing Cancer And Inflammation” (The Regents of the University of California, priority 2009, published 2010).
Some of these results come from one statement about several compounds together. For at least one compound, name, drawing or mass did not settle the structure.

System: CD11b+ myeloid cell adhesion to VCAM-1
Assay: Chemoattractant-stimulated CD11b+ myeloid cell adhesion to VCAM-1 / endothelial cells (Example 9 adhesion assay)
Type: cell-based, mouse
Conditions: titration, SDF-1α and IL-1β induced adhesion to VCAM-1
Experimental: 1×10^5 calcein-AM labelled human CD11b+ cells isolated from buffy coats from the San Diego Blood Bank or murine CD11b+ cells isolated from naïve (non-tumour bearing) or tumour-bearing mice were incubated on HUVEC monolayers or on plastic plates coated with 5 μg/ml recombinant soluble VCAM-1 or ICAM-1 (R&D Systems) for 30 minutes at 37° C. with humidity in the presence of LLC Tumour Conditioned Medium (TCM) or DMEM containing 200 ng/ml SDF1α, IL1β, IL6, TNFα or VEGF-A (R&D Systems). (SDF-1α and IL-1β were initially titrated to determine the minimum dose required to achieve near maximal stimulation of adhesion). TCM was prepared by incubating LLC cells in serum-free media for 18 h and filtering through 0.22 μm filters. After washing three times with warmed medium, adherent cells were quantified using a plate fluorimeter (GeniosPro, TECAN).
In some adhesion assays, cells were also incubated in 25 μg/ml function-blocking anti-integrin α4β1 (rat anti-murine, PS2 or mouse anti-human, HP2/1, gifts from Biogen-Idec), rat-anti-αM (anti-CD11b, M1/70) and isotype control antibodies (rat IgG2κ or mouse IgG1) or with 0.1 nM-10 μM doses of the small molecule inhibitor of integrin α4, ELN476063 (IC50=10 nM), a gift from Elan^14. […]

Compound: Cc1cc(C(C)Nc2ccccc2)c2nc(N3CCOCC3)cc(=O)n2c1 (stereo not shown) [TGX221]
- concentration below which no effect on adhesion: ≥ 100 µM
